Reference: the supplement of paper PMC12067093, “Discovery and optimisation of a covalent ligand for TRIM25 and its application to targeted protein ubiquitination” (Chemical Science, 2025)
The other results are listed elsewhere or left out.

The chains behind the UniProt entries cited, without tags or fusion partners. Where a name states a change or a piece, a line headed by the entry shows the natural chain unless it says otherwise.
UniProt Q9BUA3: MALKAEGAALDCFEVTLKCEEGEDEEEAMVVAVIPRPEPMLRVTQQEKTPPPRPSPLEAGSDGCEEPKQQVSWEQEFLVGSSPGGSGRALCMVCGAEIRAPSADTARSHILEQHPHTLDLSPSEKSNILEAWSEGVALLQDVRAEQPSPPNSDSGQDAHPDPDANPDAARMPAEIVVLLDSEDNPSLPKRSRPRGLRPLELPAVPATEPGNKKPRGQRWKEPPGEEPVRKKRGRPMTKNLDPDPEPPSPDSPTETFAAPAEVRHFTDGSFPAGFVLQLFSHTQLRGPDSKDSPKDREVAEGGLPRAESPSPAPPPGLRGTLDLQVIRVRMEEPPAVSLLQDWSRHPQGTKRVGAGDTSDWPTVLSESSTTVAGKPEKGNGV
UniProt Q9NUQ6: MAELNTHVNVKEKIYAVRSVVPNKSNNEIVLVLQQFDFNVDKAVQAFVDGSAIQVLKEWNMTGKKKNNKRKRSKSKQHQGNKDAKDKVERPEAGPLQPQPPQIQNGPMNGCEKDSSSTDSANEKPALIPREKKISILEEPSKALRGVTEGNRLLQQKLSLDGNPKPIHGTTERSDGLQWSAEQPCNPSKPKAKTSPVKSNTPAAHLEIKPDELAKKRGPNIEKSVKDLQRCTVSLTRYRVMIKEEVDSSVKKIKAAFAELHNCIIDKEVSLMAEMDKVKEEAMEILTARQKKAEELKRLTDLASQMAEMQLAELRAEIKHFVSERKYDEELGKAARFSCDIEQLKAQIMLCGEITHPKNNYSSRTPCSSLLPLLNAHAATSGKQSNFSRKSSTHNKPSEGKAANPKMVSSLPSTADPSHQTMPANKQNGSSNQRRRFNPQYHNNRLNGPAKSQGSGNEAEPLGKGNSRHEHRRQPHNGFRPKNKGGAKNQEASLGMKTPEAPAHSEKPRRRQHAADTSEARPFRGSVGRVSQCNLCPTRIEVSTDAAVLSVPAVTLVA
UniProt Q8NB90: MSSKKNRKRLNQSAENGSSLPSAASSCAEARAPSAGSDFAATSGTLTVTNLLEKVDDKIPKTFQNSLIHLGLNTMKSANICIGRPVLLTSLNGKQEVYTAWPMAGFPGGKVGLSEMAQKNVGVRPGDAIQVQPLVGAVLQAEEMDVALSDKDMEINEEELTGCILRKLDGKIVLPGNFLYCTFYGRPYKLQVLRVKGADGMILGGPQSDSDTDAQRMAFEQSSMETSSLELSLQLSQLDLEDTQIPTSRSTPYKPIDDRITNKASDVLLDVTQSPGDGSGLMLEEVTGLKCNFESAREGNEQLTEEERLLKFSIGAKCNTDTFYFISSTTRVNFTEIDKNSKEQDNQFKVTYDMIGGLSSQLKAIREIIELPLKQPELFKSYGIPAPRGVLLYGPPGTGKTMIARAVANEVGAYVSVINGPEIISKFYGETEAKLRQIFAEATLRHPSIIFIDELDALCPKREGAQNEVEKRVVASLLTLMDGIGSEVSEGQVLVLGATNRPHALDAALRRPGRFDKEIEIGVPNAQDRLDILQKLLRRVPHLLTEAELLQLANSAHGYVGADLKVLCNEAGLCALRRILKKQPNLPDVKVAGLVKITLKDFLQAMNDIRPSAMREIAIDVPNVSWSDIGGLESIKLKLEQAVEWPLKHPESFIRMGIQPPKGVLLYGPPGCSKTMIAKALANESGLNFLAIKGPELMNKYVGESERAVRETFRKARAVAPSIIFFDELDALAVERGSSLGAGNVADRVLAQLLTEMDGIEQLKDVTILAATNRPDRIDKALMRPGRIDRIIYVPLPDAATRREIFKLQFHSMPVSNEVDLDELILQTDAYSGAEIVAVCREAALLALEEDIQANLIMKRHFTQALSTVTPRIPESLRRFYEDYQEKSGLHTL
UniProt P30626: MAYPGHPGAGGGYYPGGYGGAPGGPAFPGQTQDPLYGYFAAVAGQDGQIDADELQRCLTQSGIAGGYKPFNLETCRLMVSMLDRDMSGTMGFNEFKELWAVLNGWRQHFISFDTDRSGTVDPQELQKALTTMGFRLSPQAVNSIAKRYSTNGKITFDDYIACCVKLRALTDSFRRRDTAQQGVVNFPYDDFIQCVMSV
UniProt Q00796: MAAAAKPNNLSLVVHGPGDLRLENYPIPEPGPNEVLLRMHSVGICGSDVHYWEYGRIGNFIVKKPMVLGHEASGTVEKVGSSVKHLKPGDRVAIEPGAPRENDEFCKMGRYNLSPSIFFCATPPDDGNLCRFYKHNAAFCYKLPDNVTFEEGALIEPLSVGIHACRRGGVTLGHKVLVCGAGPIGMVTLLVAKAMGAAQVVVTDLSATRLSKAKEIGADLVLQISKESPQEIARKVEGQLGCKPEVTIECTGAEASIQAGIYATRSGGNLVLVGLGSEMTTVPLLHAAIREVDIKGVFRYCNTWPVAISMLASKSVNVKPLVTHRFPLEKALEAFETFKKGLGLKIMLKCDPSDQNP
UniProt Q01082, whole entry, looked up: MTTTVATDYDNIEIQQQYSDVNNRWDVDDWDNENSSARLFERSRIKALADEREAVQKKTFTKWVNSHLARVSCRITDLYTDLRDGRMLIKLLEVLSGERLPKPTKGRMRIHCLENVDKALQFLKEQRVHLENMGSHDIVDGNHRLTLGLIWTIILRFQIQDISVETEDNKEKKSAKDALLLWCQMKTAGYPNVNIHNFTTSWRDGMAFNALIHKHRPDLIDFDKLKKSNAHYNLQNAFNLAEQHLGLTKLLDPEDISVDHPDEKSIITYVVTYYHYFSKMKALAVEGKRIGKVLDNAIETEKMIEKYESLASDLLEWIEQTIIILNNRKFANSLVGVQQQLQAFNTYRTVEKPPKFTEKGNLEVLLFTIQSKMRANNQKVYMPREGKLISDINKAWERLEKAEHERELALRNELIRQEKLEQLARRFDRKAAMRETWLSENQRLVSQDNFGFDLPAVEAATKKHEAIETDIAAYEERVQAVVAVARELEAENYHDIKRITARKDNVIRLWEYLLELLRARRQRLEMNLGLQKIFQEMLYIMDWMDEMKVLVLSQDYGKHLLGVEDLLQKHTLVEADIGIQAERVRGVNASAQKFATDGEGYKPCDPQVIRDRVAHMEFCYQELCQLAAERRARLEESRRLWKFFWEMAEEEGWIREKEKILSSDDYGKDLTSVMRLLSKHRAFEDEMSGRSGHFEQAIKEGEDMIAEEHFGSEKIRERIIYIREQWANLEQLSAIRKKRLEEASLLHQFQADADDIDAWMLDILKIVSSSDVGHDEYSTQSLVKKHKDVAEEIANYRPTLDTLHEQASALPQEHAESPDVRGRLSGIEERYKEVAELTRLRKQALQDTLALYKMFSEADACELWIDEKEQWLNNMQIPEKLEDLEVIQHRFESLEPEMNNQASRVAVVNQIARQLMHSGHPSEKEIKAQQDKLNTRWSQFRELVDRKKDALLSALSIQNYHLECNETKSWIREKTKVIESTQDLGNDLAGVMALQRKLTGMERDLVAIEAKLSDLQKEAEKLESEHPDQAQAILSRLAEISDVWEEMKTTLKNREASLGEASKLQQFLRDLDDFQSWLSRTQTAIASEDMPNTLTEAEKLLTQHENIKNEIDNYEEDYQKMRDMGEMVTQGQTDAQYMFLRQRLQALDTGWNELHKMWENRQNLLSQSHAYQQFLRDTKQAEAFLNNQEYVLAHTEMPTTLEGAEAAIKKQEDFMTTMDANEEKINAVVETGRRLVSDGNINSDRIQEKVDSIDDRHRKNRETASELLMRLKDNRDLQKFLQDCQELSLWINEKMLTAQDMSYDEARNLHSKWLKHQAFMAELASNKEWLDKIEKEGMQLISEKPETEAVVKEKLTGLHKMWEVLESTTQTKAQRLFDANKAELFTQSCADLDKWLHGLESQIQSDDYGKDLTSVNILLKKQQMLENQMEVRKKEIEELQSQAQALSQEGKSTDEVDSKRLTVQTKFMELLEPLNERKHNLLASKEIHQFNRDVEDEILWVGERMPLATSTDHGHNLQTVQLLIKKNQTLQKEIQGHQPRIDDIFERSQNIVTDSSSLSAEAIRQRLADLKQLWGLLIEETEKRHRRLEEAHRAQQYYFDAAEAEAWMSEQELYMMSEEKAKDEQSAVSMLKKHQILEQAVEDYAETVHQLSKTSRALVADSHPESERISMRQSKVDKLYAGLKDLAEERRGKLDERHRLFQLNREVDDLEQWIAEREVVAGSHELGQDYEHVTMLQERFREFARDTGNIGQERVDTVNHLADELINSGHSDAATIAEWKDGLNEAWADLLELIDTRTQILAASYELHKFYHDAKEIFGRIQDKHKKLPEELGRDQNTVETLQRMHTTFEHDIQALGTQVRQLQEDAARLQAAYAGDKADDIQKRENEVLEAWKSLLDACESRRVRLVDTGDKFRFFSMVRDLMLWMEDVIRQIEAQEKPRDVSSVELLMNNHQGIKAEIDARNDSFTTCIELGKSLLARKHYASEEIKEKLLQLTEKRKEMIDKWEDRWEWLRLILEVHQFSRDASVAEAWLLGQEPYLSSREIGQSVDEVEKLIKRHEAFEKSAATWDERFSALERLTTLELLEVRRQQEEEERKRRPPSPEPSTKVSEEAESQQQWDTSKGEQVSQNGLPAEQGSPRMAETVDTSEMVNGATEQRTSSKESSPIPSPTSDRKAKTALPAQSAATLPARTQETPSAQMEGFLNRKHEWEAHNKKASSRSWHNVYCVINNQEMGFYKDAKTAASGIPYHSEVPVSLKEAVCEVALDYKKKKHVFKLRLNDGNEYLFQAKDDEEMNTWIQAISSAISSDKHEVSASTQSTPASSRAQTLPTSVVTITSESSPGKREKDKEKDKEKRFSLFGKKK
UniProt Q9Y5X1: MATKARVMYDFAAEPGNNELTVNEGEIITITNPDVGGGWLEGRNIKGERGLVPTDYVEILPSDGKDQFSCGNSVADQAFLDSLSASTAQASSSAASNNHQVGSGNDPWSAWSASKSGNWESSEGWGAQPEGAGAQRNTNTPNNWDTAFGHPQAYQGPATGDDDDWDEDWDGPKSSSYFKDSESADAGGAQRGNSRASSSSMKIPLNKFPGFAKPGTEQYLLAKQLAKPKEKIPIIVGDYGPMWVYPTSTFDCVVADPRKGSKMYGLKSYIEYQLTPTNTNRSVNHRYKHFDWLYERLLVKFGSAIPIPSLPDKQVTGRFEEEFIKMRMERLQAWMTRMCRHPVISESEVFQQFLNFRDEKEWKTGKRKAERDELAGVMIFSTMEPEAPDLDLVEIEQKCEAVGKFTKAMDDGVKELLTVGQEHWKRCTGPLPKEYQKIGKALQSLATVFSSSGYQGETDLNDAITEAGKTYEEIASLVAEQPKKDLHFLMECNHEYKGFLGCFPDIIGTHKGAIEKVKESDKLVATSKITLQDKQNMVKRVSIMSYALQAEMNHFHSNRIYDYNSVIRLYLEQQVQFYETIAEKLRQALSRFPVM
UniProt P09132: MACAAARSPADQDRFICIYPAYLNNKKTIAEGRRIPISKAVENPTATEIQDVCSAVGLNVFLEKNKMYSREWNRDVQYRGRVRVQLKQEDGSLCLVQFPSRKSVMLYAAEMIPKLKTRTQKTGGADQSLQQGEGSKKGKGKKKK
UniProt Q8N9Q2: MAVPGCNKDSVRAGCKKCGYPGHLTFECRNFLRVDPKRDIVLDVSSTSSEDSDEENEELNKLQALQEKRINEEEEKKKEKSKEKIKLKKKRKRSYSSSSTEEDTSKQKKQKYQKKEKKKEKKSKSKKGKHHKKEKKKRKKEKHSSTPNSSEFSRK
UniProt Q9Y5W7: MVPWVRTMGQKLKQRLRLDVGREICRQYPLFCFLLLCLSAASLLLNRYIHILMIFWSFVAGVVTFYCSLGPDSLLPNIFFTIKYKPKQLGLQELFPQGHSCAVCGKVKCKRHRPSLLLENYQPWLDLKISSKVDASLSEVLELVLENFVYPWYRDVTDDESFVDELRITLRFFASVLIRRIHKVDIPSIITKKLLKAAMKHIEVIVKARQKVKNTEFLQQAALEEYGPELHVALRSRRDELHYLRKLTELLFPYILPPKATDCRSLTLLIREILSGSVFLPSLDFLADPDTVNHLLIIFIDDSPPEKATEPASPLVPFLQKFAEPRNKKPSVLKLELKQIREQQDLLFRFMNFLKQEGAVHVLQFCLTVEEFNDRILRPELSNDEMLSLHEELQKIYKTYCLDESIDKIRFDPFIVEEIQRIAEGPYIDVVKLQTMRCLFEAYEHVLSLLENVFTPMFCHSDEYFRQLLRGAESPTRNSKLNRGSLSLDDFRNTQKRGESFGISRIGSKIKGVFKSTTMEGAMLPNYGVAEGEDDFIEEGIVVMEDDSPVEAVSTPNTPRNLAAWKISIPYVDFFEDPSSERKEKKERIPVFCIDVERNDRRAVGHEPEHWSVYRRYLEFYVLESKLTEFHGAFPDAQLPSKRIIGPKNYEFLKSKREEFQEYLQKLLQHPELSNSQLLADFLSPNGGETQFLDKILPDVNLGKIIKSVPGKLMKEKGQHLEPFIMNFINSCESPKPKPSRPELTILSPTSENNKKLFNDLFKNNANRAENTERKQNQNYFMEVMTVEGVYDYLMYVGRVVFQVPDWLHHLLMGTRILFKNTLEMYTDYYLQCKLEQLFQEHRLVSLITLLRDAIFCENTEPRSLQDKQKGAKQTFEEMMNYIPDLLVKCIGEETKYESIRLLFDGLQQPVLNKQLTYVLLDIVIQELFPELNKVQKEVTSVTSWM

These targets were tested with Cc1cc(ccc1-c1ccccc1)C(=O)N1CCCN(CC1)C(=O)CCl [compound 10] (assay: probe-labelled cysteine peptide fold change vs DMSO (competition) (log2 fold change); higher = less target engagement (more negative = stronger competition)). Conditions: 10 µM; THP-1; incubation time: 4 h.
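Note: competitive profiling in live THP-1 cells: cysteine peptides tagged with an iodoacetamide desthiobiotin (IA-DTB) probe, intensity after compound treatment relative to DMSO-treated cells.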

Target | probe-labelled cysteine peptide fold change
SPINDOC_Q9BUA3_12_AEGAALDCFEVTLK (UniProt Q9BUA3) | -0.158
SPATS2L_Q9NUQ6_351_AQIMLCGEITHPK (UniProt Q9NUQ6) | -0.0897
SPATA5_Q8NB90_81_SANICIGRPVLLTSLNGK (UniProt Q8NB90) | 0.0626
SRI_P30626_75_CLTQSGIAGGYKPFNLETCR (UniProt P30626) | 0.349
SRP68_Q9UHB9_586_QANLVHFPPGFQPIPCKPLFFDLALNHVAFPPLEDKLEQK (UniProt Q9UHB9) | -0.0926

Same assay, conditions: 50 µM; THP-1; incubation time: 4 h

Target | probe-labelled cysteine peptide fold change
SP3_Q02447_683_KFVCPECSK (UniProt Q02447) | 0.33
SREBF2_Q12772_787_ESLYCAQR (UniProt Q12772) | -0.116
SNUPN_O95149_356_GSSHSPDHPGCLMEN (UniProt O95149) | -0.623
SORD_Q00796_106_ENDEFCK (UniProt Q00796) | -0.0861
SPOUT1_Q5T280_10_KRPCGPGEHGQR (UniProt Q5T280) | -0.321
SPTBN1_Q01082_1900_SLLDACESRR (UniProt Q01082) | -0.154
SPTAN1_Q13813_158_ECEDVMDWINDK (UniProt Q13813) | 0.35
SPATA5_Q8NB90_574_VLCNEAGLCALRR (UniProt Q8NB90) | -0.227
SRP68_Q9UHB9_173_LCESNR (UniProt Q9UHB9) | 0.506
SNX6_Q9UNH7_149_TVAMHEVFLCR (UniProt Q9UNH7) | -1.4
SNX7_Q9UNH6_325_VECANNALK (UniProt Q9UNH6) | -0.28
SNX32_Q86XE0_237_CLADDYIPISAALSSLGTQEVNQLR (UniProt Q86XE0) | -0.0413
SPATA5_Q8NB90_459_HPSIIFIDELDALCPK (UniProt Q8NB90) | -0.0517
SPEN_Q96T58_1238_MDHVDFDICTK (UniProt Q96T58) | -0.532
SNRPF_P62306_66_CNNVLYIR (UniProt P62306) | 0.0292
SPTBN1_Q01082_861_MFSEADACELWIDEK (UniProt Q01082) | 0.00371
SPC25_Q9HBM1_27_STDTSCQMAGLR (UniProt Q9HBM1) | -0.376
SNX18_Q96RF0-2_570_CNTISFATLAEIHHFHQIR (UniProt Q96RF0) | 0.283
SORBS3_O60504_482_KGEHICLIR (UniProt O60504) | -0.34
SRC_P12931_248_LTTVCPTSKPQTQGLAK (UniProt P12931) | -0.356

Target | probe-labelled cysteine peptide fold change
SNX9_Q9Y5X1_399_CEAVGK (UniProt Q9Y5X1) | -0.103
SRP19_P09132_53_AVENPTATEIQDVCSAVGLNVFLEK (UniProt P09132) | 0.052
SP4_Q02446_625_VACSCPNCR (UniProt Q02446) | -0.0712
SPTLC1_O15269_255_FIVVEGLYMNTGTICPLPELVK (UniProt O15269) | 0.00555
SRGAP2_O75044_588_DIFHDLMACVTMDNLQER (UniProt O75044) | 0.306
SNU13_P55769_93_ACGVSRPVIACSVTIK (UniProt P55769) | 0.0644
SPATA5_Q8NB90_672_GVLLYGPPGCSK (UniProt Q8NB90) | -0.17
SQOR_Q9Y6N5_127_NCIHTDDDEK (UniProt Q9Y6N5) | -0.0351
SREK1IP1_Q8N9Q2_18_CGYPGHLTFECR (UniProt Q8N9Q2) | 0.23
SNX14_Q9Y5W7_593_ERIPVFCIDVER (UniProt Q9Y5W7) | 0.205
SNX9_Q9Y5X1_492_DLHFLMECNHEYK (UniProt Q9Y5X1) | -0.16
SNX5_Q9Y5X3_346+347_LAEAHQQECCQK (UniProt Q9Y5X3) | -0.99
SRP72_O76094_128_YDECLAVYR (UniProt O76094) | 0.0565
SORD_Q00796_130_YNLSPSIFFCATPPDDGNLCR (UniProt Q00796) | 0.371
SPINDOC_Q9BUA3_12_AEGAALDCFEVTLK (UniProt Q9BUA3) | -0.0572
SPATS2L_Q9NUQ6_351_AQIMLCGEITHPK (UniProt Q9NUQ6) | 0.074
SPATA5_Q8NB90_81_SANICIGRPVLLTSLNGK (UniProt Q8NB90) | 0.0171
SRI_P30626_75_CLTQSGIAGGYKPFNLETCR (UniProt P30626) | 0.00534
SRP68_Q9UHB9_586_QANLVHFPPGFQPIPCKPLFFDLALNHVAFPPLEDKLEQK (UniProt Q9UHB9) | -0.793
